Test results reported in doi:10.1101/2023.06.24.546380.
No constants are given. Whether binding was seen depends on the method and setting. Some binding calls cover weakened binding; strength is not graded here.

T1: Zonula occludens scaffold protein ZO1, Q07157
T1 chain: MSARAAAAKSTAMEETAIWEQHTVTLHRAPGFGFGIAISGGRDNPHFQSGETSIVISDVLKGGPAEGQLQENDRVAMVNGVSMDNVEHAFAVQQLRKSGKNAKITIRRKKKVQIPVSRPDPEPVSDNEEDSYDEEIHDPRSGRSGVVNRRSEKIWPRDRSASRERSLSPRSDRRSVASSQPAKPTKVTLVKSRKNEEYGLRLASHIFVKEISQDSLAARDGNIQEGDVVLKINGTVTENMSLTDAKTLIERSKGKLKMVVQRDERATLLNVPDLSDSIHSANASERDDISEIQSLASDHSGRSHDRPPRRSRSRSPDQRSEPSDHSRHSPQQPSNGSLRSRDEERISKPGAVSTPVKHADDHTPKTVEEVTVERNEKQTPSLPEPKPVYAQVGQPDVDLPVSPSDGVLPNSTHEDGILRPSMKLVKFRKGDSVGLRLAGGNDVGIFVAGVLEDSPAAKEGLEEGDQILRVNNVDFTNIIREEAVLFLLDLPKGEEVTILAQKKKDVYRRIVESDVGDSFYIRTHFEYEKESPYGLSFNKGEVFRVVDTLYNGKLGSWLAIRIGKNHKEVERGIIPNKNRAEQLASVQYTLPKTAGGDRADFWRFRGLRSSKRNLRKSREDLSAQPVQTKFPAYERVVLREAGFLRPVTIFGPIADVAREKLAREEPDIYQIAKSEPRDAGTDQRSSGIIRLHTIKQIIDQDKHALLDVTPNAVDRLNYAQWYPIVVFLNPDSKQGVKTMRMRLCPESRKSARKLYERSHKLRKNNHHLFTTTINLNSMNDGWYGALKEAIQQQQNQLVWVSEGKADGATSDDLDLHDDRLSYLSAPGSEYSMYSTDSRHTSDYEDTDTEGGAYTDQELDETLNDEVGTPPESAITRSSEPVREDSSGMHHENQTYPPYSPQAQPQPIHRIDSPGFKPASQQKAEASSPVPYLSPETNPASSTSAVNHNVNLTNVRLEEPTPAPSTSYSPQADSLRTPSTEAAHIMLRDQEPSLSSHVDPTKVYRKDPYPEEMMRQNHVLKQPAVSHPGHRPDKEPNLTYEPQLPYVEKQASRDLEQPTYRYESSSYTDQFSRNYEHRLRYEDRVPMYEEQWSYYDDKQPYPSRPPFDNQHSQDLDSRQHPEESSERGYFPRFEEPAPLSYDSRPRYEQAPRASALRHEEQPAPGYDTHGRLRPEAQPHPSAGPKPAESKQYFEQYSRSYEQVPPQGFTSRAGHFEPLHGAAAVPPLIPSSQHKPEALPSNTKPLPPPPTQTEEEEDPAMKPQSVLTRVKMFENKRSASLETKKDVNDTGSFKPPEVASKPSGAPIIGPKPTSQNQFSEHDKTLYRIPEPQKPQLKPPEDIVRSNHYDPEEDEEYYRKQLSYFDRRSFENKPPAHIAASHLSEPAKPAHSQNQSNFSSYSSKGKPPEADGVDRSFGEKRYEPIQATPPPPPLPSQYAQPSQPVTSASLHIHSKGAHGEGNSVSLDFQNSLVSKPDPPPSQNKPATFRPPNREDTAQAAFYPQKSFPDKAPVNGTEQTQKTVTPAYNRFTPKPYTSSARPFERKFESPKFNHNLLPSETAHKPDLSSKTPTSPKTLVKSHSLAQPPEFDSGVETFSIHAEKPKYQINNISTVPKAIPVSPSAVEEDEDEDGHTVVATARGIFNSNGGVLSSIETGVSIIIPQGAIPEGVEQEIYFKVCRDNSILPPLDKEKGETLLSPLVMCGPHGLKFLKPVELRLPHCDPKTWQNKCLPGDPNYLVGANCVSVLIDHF

B1: PAR3, Q8TEW0 1-1356 (protein)
chain: MKVTVCFGRTRVVVPCGDGHMKVFSLIQQAVTRYRKAIAKDPNYWIQVHRLEHGDGGILDLDDILCDVADDKDRLVAVFDEQDPHHGGDGTSASSTGTQSPEIFGSELGTNNVSAFQPYQATSEIEVTPSVLRANMPLHVRRSSDPALIGLSTSVSDSNFSSEEPSRKNPTRWSTTAGFLKQNTAGSPKTCDRKKDENYRSLPRDTSNWSNQFQRDNARSSLSASHPMVGKWLEKQEQDEDGTEEDNSRVEPVGHADTGLEHIPNFSLDDMVKLVEVPNDGGPLGIHVVPFSARGGRTLGLLVKRLEKGGKAEHENLFRENDCIVRINDGDLRNRRFEQAQHMFRQAMRTPIIWFHVVPAANKEQYEQLSQSEKNNYYSSRFSPDSQYIDNRSVNSAGLHTVQRAPRLNHPPEQIDSHSRLPHSAHPSGKPPSAPASAPQNVFSTTVSSGYNTKKIGKRLNIQLKKGTEGLGFSITSRDVTIGGSAPIYVKNILPRGAAIQDGRLKAGDRLIEVNGVDLVGKSQEEVVSLLRSTKMEGTVSLLVFRQEDAFHPRELNAEPSQMQIPKETKAEDEDIVLTPDGTREFLTFEVPLNDSGSAGLGVSVKGNRSKENHADLGIFVKSIINGGAASKDGRLRVNDQLIAVNGESLLGKTNQDAMETLRRSMSTEGNKRGMIQLIVARRISKCNELKSPGSPPGPELPIETALDDRERRISHSLYSGIEGLDESPSRNAALSRIMGESGKYQLSPTVNMPQDDTVIIEDDRLPVLPPHLSDQSSSSSHDDVGFVTADAGTWAKAAISDSADCSLSPDVDPVLAFQREGFGRQSMSEKRTKQFSDASQLDFVKTRKSKSMDLGIADETKLNTVDDQKAGSPSRDVGPSLGLKKSSSLESLQTAVAEVTLNGDIPFHRPRPRIIRGRGCNESFRAAIDKSYDKPAVDDDDEGMETLEEDTEESSRSGRESVSTASDQPSHSLERQMNGNQEKGDKTDRKKDKTGKEKKKDRDKEKDKMKAKKGMLKGLGDMFRFGKHRKDDKIEKTGKIKIQESFTSEEERIRMKQEQERIQAKTREFRERQARERDYAEIQDFHRTFGCDDELMYGGVSSYEGSMALNARPQSPREGHMMDALYAQVKKPRNSKPSPVDSNRSTPSNHDRIQRLRQEFQQAKQDEDVEDRRRTYSFEQPWPNARPATQSGRHSVSVEVQMQRQRQEERESSQQAQRQYSSLPRQSRKNASSVSQDSWEQNYSPGEGFQSAKENPRYSSYQGSRNGYLGGHGFNARVMLETQELLRQEQRRKEQQMKKQPPSEGPSNYDSYKKVQDPSYAPPKGPFRQDVPPSPSQVARLNRLQTPEKGRPFYS
B2: ZO2 (protein, UniProt Q9UDY2 1-1190)
chain: MPVRGDRGFPPRRELSGWLRAPGMEELIWEQYTVTLQKDSKRGFGIAVSGGRDNPHFENGETSIVISDVLPGGPADGLLQENDRVVMVNGTPMEDVLHSFAVQQLRKSGKVAAIVVKRPRKVQVAALQASPPLDQDDRAFEVMDEFDGRSFRSGYSERSRLNSHGGRSRSWEDSPERGRPHERARSRERDLSRDRSRGRSLERGLDQDHARTRDRSRGRSLERGLDHDFGPSRDRDRDRSRGRSIDQDYERAYHRAYDPDYERAYSPEYRRGARHDARSRGPRSRSREHPHSRSPSPEPRGRPGPIGVLLMKSRANEEYGLRLGSQIFVKEMTRTGLATKDGNLHEGDIILKINGTVTENMSLTDARKLIEKSRGKLQLVVLRDSQQTLINIPSLNDSDSEIEDISEIESNRSFSPEERRHQYSDYDYHSSSEKLKERPSSREDTPSRLSRMGATPTPFKSTGDIAGTVVPETNKEPRYQEDPPAPQPKAAPRTFLRPSPEDEAIYGPNTKMVRFKKGDSVGLRLAGGNDVGIFVAGIQEGTSAEQEGLQEGDQILKVNTQDFRGLVREDAVLYLLEIPKGEMVTILAQSRADVYRDILACGRGDSFFIRSHFECEKETPQSLAFTRGEVFRVVDTLYDGKLGNWLAVRIGNELEKGLIPNKSRAEQMASVQNAQRDNAGDRADFWRMRGQRSGVKKNLRKSREDLTAVVSVSTKFPAYERVLLREAGFKRPVVLFGPIADIAMEKLANELPDWFQTAKTEPKDAGSEKSTGVVRLNTVRQIIEQDKHALLDVTPKAVDLLNYTQWFPIVIFFNPDSRQGVKTMRQRLNPTSNKSSRKLFDQANKLKKTCAHLFTATINLNSANDSWFGSLKDTIQHQQGEAVWVSEGKMEGMDDDPEDRMSYLTAMGADYLSCDSRLISDFEDTDGEGGAYTDNELDEPAEEPLVSSITRSSEPVQHEESIRKPSPEPRAQMRRAASSDQLRDNSPPPAFKPEPPKAKTQNKEESYDFSKSYEYKSNPSAVAGNETPGASTKGYPPPVAAKPTFGRSILKPSTPIPPQEGEEVGESSEEQDNAPKSVLGKVKIFEKMDHKARLQRMQELQEAQNARIEIAQKHPDIYAVPIKTHKPDPGTPQHTSSRPPEPQKAPSRPYQDTRGSYGSDAEEEEYRQQLSEHSKRGYYGQSARYRDTEL
B3: CGN (protein, UniProt Q9P2M7 1-1203)
chain: MEQAPNMAEPRGPVDHGVQIRFITEPVSGAEMGTLRRGGRRPAKDARASTYGVAVRVQGIAGQPFVVLNSGEKGGDSFGVQIKGANDQGASGALSSDLELPENPYSQVKGFPAPSQSSTSDEEPGAYWNGKLLRSHSQASLAGPGPVDPSNRSNSMLELAPKVASPGSTIDTAPLSSVDSLINKFDSQLGGQARGRTGRRTRMLPPEQRKRSKSLDSRLPRDTFEERERQSTNHWTSSTKYDNHVGTSKQPAQSQNLSPLSGFSRSRQTQDWVLQSFEEPRRSAQDPTMLQFKSTPDLLRDQQEAAPPGSVDHMKATIYGILREGSSESETSVRRKVSLVLEKMQPLVMVSSGSTKAVAGQGELTRKVEELQRKLDEEVKKRQKLEPSQVGLERQLEEKTEECSRLQELLERRKGEAQQSNKELQNMKRLLDQGEDLRHGLETQVMELQNKLKHVQGPEPAKEVLLKDLLETRELLEEVLEGKQRVEEQLRLRERELTALKGALKEEVASRDQEVEHVRQQYQRDTEQLRRSMQDATQDHAVLEAERQKMSALVRGLQRELEETSEETGHWQSMFQKNKEDLRATKQELLQLRMEKEEMEEELGEKIEVLQRELEQARASAGDTRQVEVLKKELLRTQEELKELQAERQSQEVAGRHRDRELEKQLAVLRVEADRGRELEEQNLQLQKTLQQLRQDCEEASKAKMVAEAEATVLGQRRAAVETTLRETQEENDEFRRRILGLEQQLKETRGLVDGGEAVEARLRDKLQRLEAEKQQLEEALNASQEEEGSLAAAKRALEARLEEAQRGLARLGQEQQTLNRALEEEGKQREVLRRGKAELEEQKRLLDRTVDRLNKELEKIGEDSKQALQQLQAQLEDYKEKARREVADAQRQAKDWASEAEKTSGGLSRLQDEIQRLRQALQASQAERDTARLDKELLAQRLQGLEQEAENKKRSQDDRARQLKGLEEKVSRLETELDEEKNTVELLTDRVNRGRDQVDQLRTELMQERSARQDLECDKISLERQNKDLKTRLASSEGFQKPSASLSQLESQNQLLQERLQAEEREKTVLQSTNRKLERKVKELSIQIEDERQHVNDQKDQLSLRVKALKRQVDEAEEEIERLDGLRKKAQREVEEQHEVNEQLQARIKSLEKDSWRKASRSAAESALKNEGLSSDEEFDSVYDPSSIASLLTESNLQTSSC

What was measured:
[1] = target: T1, Zonula occludens scaffold protein ZO1, …; details: remark: other sources report otherwise
[2] = target: Zonula occludens scaffold protein ZO1 (UniProt Q07157)

Binder	binding [1]	binding [2]
B1	binds	
B2		binds
B3		binds
